{
  "source": "paper PMC12670160",
  "about": "“A drug-repurposing screen of FDA- and EMA-approved drugs identifies two NF-κB inhibitors active against eumycetoma” (Journal of Antimicrobial Chemotherapy, 2025)",
  "note": "Where a name gives a salt, the structure may show the parent alone. Hit rate of the full screen: of about 5,300 compounds, about 130 (2.5%) showed an effect of 50% or more. The list shows a part of the results.",
  "data": [
    {"tested_on": "M. mycetomatis strain mm55", "conditions": "primary screen, metabolic activity vs growth control; 96 h, 2 µM; inhibitor", "units": {"% viability": "%"}, "values": [
      {"smiles": "Cc1ccc(O)c([C@H](CCN(C(C)C)C(C)C)c2ccccc2)c1", "note": "[ONC0005209, tolterodine tartrate detrol la]", "% viability": 113.4},
      {"smiles": "Oc1c(Cl)cc(Cl)cc1Sc1cc(Cl)cc(Cl)c1O", "note": "[ONC0003234, bithionol]", "% viability": 107},
      {"smiles": "C=CCc1ccccc1OCC(O)CNC(C)C", "note": "(centres unmarked) [ONC0005361, alprenolol hydrochloride]", "% viability": 68.22},
      {"smiles": "NC[C@H]1CC[C@H](C(=O)O)CC1", "note": "[ONC0000592, tranexamic acid]", "% viability": 200.2},
      {"smiles": "CCCCOc1ccc(CC(=O)NO)cc1", "note": "[ONC0000683, bufexamac]", "% viability": 91.55},
      {"smiles": "CN(C)c1ccc(/C=C2\\C(=O)Nc3ccccc32)cc1", "note": "[ONC0001464, su4312]", "% viability": 70.21},
      {"smiles": "C[C@@H]1COCCN1c1cc(C2(S(C)(=N)=O)CC2)nc(-c2ccnc3[nH]ccc23)n1", "note": "(some centres unmarked) [ONC0004545, azd6738]", "% viability": 60.6},
      {"smiles": "CCCN1C[C@@H](NS(=O)(=O)N(CC)CC)C[C@@H]2Cc3c(O)cccc3C[C@H]21", "note": "[ONC0000942, quinagolide hydrochloride]", "% viability": 65.37},
      {"smiles": "O=C(O)c1cc(=O)c2c(OCC(O)COc3cccc4oc(C(=O)O)cc(=O)c34)cccc2o1", "note": "[ONC0000338, cromolyn sodium]", "% viability": 70.41},
      {"smiles": "COc1cc2c(NC3CCN(C4CCCCC4)CC3)nc(N3CCCN(C(C)C)CC3)nc2cc1OCCCN1CCCCC1", "note": "[ONC0000816, unc0646]", "% viability": 85.65},
      {"smiles": "C[C@]12CC[C@@H](O)C[C@@H]1CC[C@@H]1[C@@H]2CC[C@]2(C)C(c3ccccc3)=CC[C@@H]12", "note": "[ONC0001294, 17pa]", "% viability": 69.25},
      {"smiles": "CS(=O)(=O)c1ccc(Cn2c3c(c4cc(F)cc(F)c42)CCCC3CC(=O)O)cc1", "note": "(centres unmarked) [ONC0000044, l670596]", "% viability": 95.88},
      {"smiles": "Cc1c(CC(C)(C)C(=O)O)n(Cc2ccc(Cl)cc2)c2ccc(F)cc12", "note": "[ONC0003788, l655240]", "% viability": 57.6},
      {"smiles": "Cc1c(Cl)cccc1S(=O)(=O)Nc1nc(NCCc2ccccc2)nc2c1CN(Cc1ccccc1)CC2", "note": "[ONC0000758, camkiiin1]", "% viability": 78.86},
      {"smiles": "CC(=O)c1ccc2c(c1)N(CCCN1CCN(CCO)CC1)c1ccccc1S2", "note": "[ONC0002454, acetophenazine maleate]", "% viability": 114.8},
      {"smiles": "O=C1NC(c2ccccc2)(c2ccccc2)C(=O)N1COP(=O)(O)O", "note": "[ONC0003342, fosphenytoin disodium salt hydrate]", "% viability": 79.09},
      {"smiles": "O[C@@H]1CO[C@H]2[C@@H]1OC[C@@H]2O", "note": "[ONC0001193, isosorbide]", "% viability": 79.02}
    ]}
  ]
}
